Measurements as given in the supplement of paper PMC10077471.
In all, about 1,900 compounds were measured (“excess over highest single agent (ExcessHSA) synergy score, 6x6 matrix”: median about -83, lowest 2% from about -370 on). This is one part of the list.

What follows are compounds tested on NCI-H446 (assay: excess over highest single agent (ExcessHSA) synergy score, 6x6 matrix; higher = less synergy (more negative = stronger synergy)). Settings: 72 h; CellTiter-Glo viability.

Q: With CC(C)c1nc(CN(C)C(=O)N[C@H](C(=O)N[C@@H](Cc2ccccc2)C[C@H](O)[C@H](Cc2ccccc2)NC(=O)OCc2cncs2)C(C)C)cs1 + Cc1sc2c(c1C)C(c1ccc(Cl)cc1)=N[C@@H](CC(=O)OC(C)(C)C)c1nnc(C)n1-2 [NCGC00250412-19] as the compound, how does the “excess over highest single agent” value read?
A: Its value is -283.

Q: For COc1ccc2c(c1OC)CN1CCc3cc4c(cc3C1C2)OCO4 (stereo unspecified) + Cc1sc2c(c1C)C(c1ccc(Cl)cc1)=N[C@@H](CC(=O)OC(C)(C)C)c1nnc(C)n1-2 [NCGC00250412-19], which “excess over highest single agent” value is on record?
A: The value was -109.

Q: O=C(NCC1CCCCN1)c1cc(OCC(F)(F)F)ccc1OCC(F)(F)F (stereo unspecified) + Cc1sc2c(c1C)C(c1ccc(Cl)cc1)=N[C@@H](CC(=O)OC(C)(C)C)c1nnc(C)n1-2 [NCGC00250412-19] was tested. Which “excess over highest single agent” value did it give?
A: Its value is 23.3.

Q: With COc1cc(N2CCC(N3CCN(C)CC3)CC2)ccc1Nc1ncc(Cl)c(Nc2ccccc2S(=O)(=O)C(C)C)n1 + Cc1sc2c(c1C)C(c1ccc(Cl)cc1)=N[C@@H](CC(=O)OC(C)(C)C)c1nnc(C)n1-2 [NCGC00250412-19] as the compound, how does the “excess over highest single agent” value read?
A: The value was -237.

Q: How did the “excess over highest single agent” value turn out when C=CCON=C(C[C@H]1O[C@@H]2O[C@]3(C)CC[C@@H]4[C@H](C)CC[C@@H]([C@H]1C)[C@@]24OO3)[C@H]1O[C@@H]2O[C@]3(C)CC[C@H]4[C@H](C)CC[C@@H]([C@@H]1C)[C@@]24OO3 + Cc1sc2c(c1C)C(c1ccc(Cl)cc1)=N[C@@H](CC(=O)OC(C)(C)C)c1nnc(C)n1-2 [NCGC00250412-19] was run?
A: Its value is -427.

Q: With C[C@@H](O)[C@H]1C(=O)N2C(C(=O)OCOC(=O)C(C)(C)C)=C(SC3CN(C4=NCCS4)C3)[C@H](C)[C@H]12 + Cc1sc2c(c1C)C(c1ccc(Cl)cc1)=N[C@@H](CC(=O)OC(C)(C)C)c1nnc(C)n1-2 [NCGC00250412-19] as the compound, how does the “excess over highest single agent” value read?
A: Its value is -195.

Q: How did the “excess over highest single agent” value turn out when O=C(Nc1cc(Cl)cc2c1[nH]c1cnccc12)c1cccnc1 + Cc1sc2c(c1C)C(c1ccc(Cl)cc1)=N[C@@H](CC(=O)OC(C)(C)C)c1nnc(C)n1-2 [NCGC00250412-19] was run?
A: Its value is -175.

Q: With CC(C)(C)NC(=O)Nc1cccc(Nc2ncc(F)c(NC(C)(C)CO)n2)c1 + Cc1sc2c(c1C)C(c1ccc(Cl)cc1)=N[C@@H](CC(=O)OC(C)(C)C)c1nnc(C)n1-2 [NCGC00250412-19] as the compound, how does the “excess over highest single agent” value read?
A: The value was -210.

Q: Which “excess over highest single agent” value does the source give for S=P(N1CC1)(N1CC1)N1CC1 + Cc1sc2c(c1C)C(c1ccc(Cl)cc1)=N[C@@H](CC(=O)OC(C)(C)C)c1nnc(C)n1-2 [NCGC00250412-19] here?
A: The value was -19.4.

Q: With CCCS(=O)(=O)Nc1ccc(F)c(C(=O)c2c[nH]c3ncc(Cl)cc23)c1F + Cc1sc2c(c1C)C(c1ccc(Cl)cc1)=N[C@@H](CC(=O)OC(C)(C)C)c1nnc(C)n1-2 [NCGC00250412-19] as the compound, how does the “excess over highest single agent” value read?
A: Its value is -97.1.

Q: CCN1CCCC1CNC(=O)c1cc(S(=O)(=O)CC)c(N)cc1OC (stereo unspecified) + Cc1sc2c(c1C)C(c1ccc(Cl)cc1)=N[C@@H](CC(=O)OC(C)(C)C)c1nnc(C)n1-2 [NCGC00250412-19] was tested. Which “excess over highest single agent” value did it give?
A: The value was -64.6.

Q: Nc1nc(N)nc(-c2cc(Cl)ccc2Cl)n1 + Cc1sc2c(c1C)C(c1ccc(Cl)cc1)=N[C@@H](CC(=O)OC(C)(C)C)c1nnc(C)n1-2 [NCGC00250412-19] was tested. Which “excess over highest single agent” value did it give?
A: The value was -70.3.

Q: With CNC(=O)CN1CCC(Oc2cc3c(Nc4cccc(Cl)c4F)ncnc3cc2OC)CC1 + Cc1sc2c(c1C)C(c1ccc(Cl)cc1)=N[C@@H](CC(=O)OC(C)(C)C)c1nnc(C)n1-2 [NCGC00250412-19] as the compound, how does the “excess over highest single agent” value read?
A: The value was 36.5.

Q: Which “excess over highest single agent” value does the source give for Nc1ncnc2c1c(-c1cccc(OCc3ccccc3)c1)cn2C1CC(CN2CCCC2)C1 (stereo unspecified) + Cc1sc2c(c1C)C(c1ccc(Cl)cc1)=N[C@@H](CC(=O)OC(C)(C)C)c1nnc(C)n1-2 [NCGC00250412-19] here?
A: Its value is -89.7.

Q: Which “excess over highest single agent” value does the source give for O=C(Nc1cccc(Cl)c1)Nc1ncc(CCNc2ncnc3ccsc23)s1 + Cc1sc2c(c1C)C(c1ccc(Cl)cc1)=N[C@@H](CC(=O)OC(C)(C)C)c1nnc(C)n1-2 [NCGC00250412-19] here?
A: Its value is -121.

Q: For CNC(=O)c1ccc(N2C(=S)N(c3ccc(C#N)c(C(F)(F)F)c3)C(=O)C23CCC3)cc1F + Cc1sc2c(c1C)C(c1ccc(Cl)cc1)=N[C@@H](CC(=O)OC(C)(C)C)c1nnc(C)n1-2 [NCGC00250412-19], which “excess over highest single agent” value is on record?
A: The value was -51.1.

Q: How did the “excess over highest single agent” value turn out when CN(C)c1ccc(C2Nc3ccc4ccccc4c3C3=C2C(=O)CC(C)(C)C3)cc1Br (stereo unspecified) + Cc1sc2c(c1C)C(c1ccc(Cl)cc1)=N[C@@H](CC(=O)OC(C)(C)C)c1nnc(C)n1-2 [NCGC00250412-19] was run?
A: The value was -30.1.

Q: For O=S(=O)(N=Cc1c(O)ccc2ccccc12)c1cccs1 + Cc1sc2c(c1C)C(c1ccc(Cl)cc1)=N[C@@H](CC(=O)OC(C)(C)C)c1nnc(C)n1-2 [NCGC00250412-19], which “excess over highest single agent” value is on record?
A: The value was -64.2.

Q: With Fc1ccc(CNc2ncnc3ccc(F)cc23)cc1 + Cc1sc2c(c1C)C(c1ccc(Cl)cc1)=N[C@@H](CC(=O)OC(C)(C)C)c1nnc(C)n1-2 [NCGC00250412-19] as the compound, how does the “excess over highest single agent” value read?
A: Its value is 121.

Q: For OC[C@H]1OC(O)C[C@@H](O)[C@@H]1O (stereo partly specified) + Cc1sc2c(c1C)C(c1ccc(Cl)cc1)=N[C@@H](CC(=O)OC(C)(C)C)c1nnc(C)n1-2 [NCGC00250412-19], which “excess over highest single agent” value is on record?
A: The value was -201.

Q: Which “excess over highest single agent” value does the source give for COc1cc2ncnc(Nc3cc(Br)c(O)c(Br)c3)c2cc1OC + Cc1sc2c(c1C)C(c1ccc(Cl)cc1)=N[C@@H](CC(=O)OC(C)(C)C)c1nnc(C)n1-2 [NCGC00250412-19] here?
A: The value was -207.

Q: How did the “excess over highest single agent” value turn out when CO[C@H]1C[C@@H]2CC[C@@H](C)[C@@](O)(O2)C(=O)C(=O)N2CCCC[C@H]2C(=O)O[C@H]([C@H](C)C[C@@H]2CC[C@@H](OP(C)(C)=O)[C@H](OC)C2)CC(=O)[C@H](C)/C=C(\C)[C@@H](O)[C@@H](OC)C(=O)[C@H](C)C[C@H](C)/C=C/C=C/C=C/1C + Cc1sc2c(c1C)C(c1ccc(Cl)cc1)=N[C@@H](CC(=O)OC(C)(C)C)c1nnc(C)n1-2 [NCGC00250412-19] was run?
A: The value was -543.

Q: CC(C)(C)NCC(O)c1ccc(O)c(CO)c1 (stereo unspecified) + Cc1sc2c(c1C)C(c1ccc(Cl)cc1)=N[C@@H](CC(=O)OC(C)(C)C)c1nnc(C)n1-2 [NCGC00250412-19] was tested. Which “excess over highest single agent” value did it give?
A: The value was -52.6.

Q: With C#CCN(C)CC1=Cc2ccccc2Oc2ccccc21 + Cc1sc2c(c1C)C(c1ccc(Cl)cc1)=N[C@@H](CC(=O)OC(C)(C)C)c1nnc(C)n1-2 [NCGC00250412-19] as the compound, how does the “excess over highest single agent” value read?
A: The value was -204.

Q: With Cc1c(OCC(F)(F)F)ccnc1C[S+]([O-])c1nc2ccccc2[nH]1 (stereo unspecified) + Cc1sc2c(c1C)C(c1ccc(Cl)cc1)=N[C@@H](CC(=O)OC(C)(C)C)c1nnc(C)n1-2 [NCGC00250412-19] as the compound, how does the “excess over highest single agent” value read?
A: The value was -33.7.

Q: Which “excess over highest single agent” value does the source give for C/C=C(/C)C(=O)O[C@H]1C(C)=C2[C@H]([C@@H]1OC(=O)CCCCCCC)[C@@](C)(OC(C)=O)C[C@H](OC(=O)CCC)[C@@]1(O)[C@H]2OC(=O)[C@@]1(C)O + Cc1sc2c(c1C)C(c1ccc(Cl)cc1)=N[C@@H](CC(=O)OC(C)(C)C)c1nnc(C)n1-2 [NCGC00250412-19] here?
A: Its value is -67.2.

Q: Cn1c(=O)c2c(ncn2C)n(C)c1=O + Cc1sc2c(c1C)C(c1ccc(Cl)cc1)=N[C@@H](CC(=O)OC(C)(C)C)c1nnc(C)n1-2 [NCGC00250412-19] was tested. Which “excess over highest single agent” value did it give?
A: Its value is -34.8.

Q: CC[C@@H]1C(=O)N(C)c2cnc(Nc3ccc(C(=O)NC4CCN(C)CC4)cc3OC)nc2N1C1CCCC1 + Cc1sc2c(c1C)C(c1ccc(Cl)cc1)=N[C@@H](CC(=O)OC(C)(C)C)c1nnc(C)n1-2 [NCGC00250412-19] was tested. Which “excess over highest single agent” value did it give?
A: Its value is -91.1.

Q: COc1cc(OC)cc(-c2ccc3ncc4ccc(=O)n(-c5ccc(N6CCNCC6)c(C(F)(F)F)c5)c4c3c2)c1 + Cc1sc2c(c1C)C(c1ccc(Cl)cc1)=N[C@@H](CC(=O)OC(C)(C)C)c1nnc(C)n1-2 [NCGC00250412-19] was tested. Which “excess over highest single agent” value did it give?
A: The value was -287.

Q: For Cc1ccc(-n2[nH]c(C)c(N=Nc3cccc(-c4cccc(C(=O)O)c4)c3O)c2=O)cc1C + Cc1sc2c(c1C)C(c1ccc(Cl)cc1)=N[C@@H](CC(=O)OC(C)(C)C)c1nnc(C)n1-2 [NCGC00250412-19], which “excess over highest single agent” value is on record?
A: Its value is 23.8.

Q: How did the “excess over highest single agent” value turn out when COC(=O)Nc1nc2cc(C(=O)c3ccc(F)cc3)ccc2[nH]1 + Cc1sc2c(c1C)C(c1ccc(Cl)cc1)=N[C@@H](CC(=O)OC(C)(C)C)c1nnc(C)n1-2 [NCGC00250412-19] was run?
A: Its value is -39.

Q: Which “excess over highest single agent” value does the source give for C[C@]12CC[C@H]3[C@@H](CCC4=CC(=O)CC[C@@]43C)[C@@H]1CC[C@@H]2OC(=O)CCC1CCCC1 + Cc1sc2c(c1C)C(c1ccc(Cl)cc1)=N[C@@H](CC(=O)OC(C)(C)C)c1nnc(C)n1-2 [NCGC00250412-19] here?
A: Its value is -227.

Q: How did the “excess over highest single agent” value turn out when COC1=C(OC)C(=O)C(C/C=C(\C)CC/C=C(\C)CC/C=C(\C)CC/C=C(\C)CC/C=C(\C)CC/C=C(\C)CC/C=C(\C)CC/C=C(\C)CC/C=C(\C)CCC=C(C)C)=C(C)C1=O + Cc1sc2c(c1C)C(c1ccc(Cl)cc1)=N[C@@H](CC(=O)OC(C)(C)C)c1nnc(C)n1-2 [NCGC00250412-19] was run?
A: The value was -97.2.

Q: How did the “excess over highest single agent” value turn out when COc1ccc(COc2cc3oc(=O)c4cc(C(C)O)ccc4c3cc2OC)cc1 (stereo unspecified) + Cc1sc2c(c1C)C(c1ccc(Cl)cc1)=N[C@@H](CC(=O)OC(C)(C)C)c1nnc(C)n1-2 [NCGC00250412-19] was run?
A: The value was -50.3.

Q: Which “excess over highest single agent” value does the source give for NC1=N[C@@]2(c3cc(NC(=O)c4ccc(F)cn4)ccc3F)COC[C@H]2CS1 + Cc1sc2c(c1C)C(c1ccc(Cl)cc1)=N[C@@H](CC(=O)OC(C)(C)C)c1nnc(C)n1-2 [NCGC00250412-19] here?
A: The value was -165.

Q: How did the “excess over highest single agent” value turn out when N=C1S/C(=C\c2ccc(-c3ccc4c(c3)C(=O)NC4=O)o2)C(=O)N1c1ccc(Br)cc1 + Cc1sc2c(c1C)C(c1ccc(Cl)cc1)=N[C@@H](CC(=O)OC(C)(C)C)c1nnc(C)n1-2 [NCGC00250412-19] was run?
A: Its value is 122.
